Assay [1] has as its target Myc-tagged Glcyclin 14488 (Giardia lamblia). Put plainly: co-IP; lysates of Giardia co-expressing an HA-tagged GlCDK and a Myc-tagged Glcyclin, precleared with protein A/G agarose, precipitated with anti-Myc antibodies at 4°C overnight; lysis buffer 10 mM Tris-HCl, 5 mM EDTA, 130 mM NaCl, 1% Triton X-100, pH 7.4; Western blot with anti-HA or anti-Myc; normal mouse IgG as control. (A western blot detects proteins with antibodies after separation by electrophoresis.)

By UniProt entry, the sequences of proteins in these tests, tags left out. Where a name states a change or a piece, a line headed by the entry shows the natural chain unless it says otherwise.
UniProt A8B940: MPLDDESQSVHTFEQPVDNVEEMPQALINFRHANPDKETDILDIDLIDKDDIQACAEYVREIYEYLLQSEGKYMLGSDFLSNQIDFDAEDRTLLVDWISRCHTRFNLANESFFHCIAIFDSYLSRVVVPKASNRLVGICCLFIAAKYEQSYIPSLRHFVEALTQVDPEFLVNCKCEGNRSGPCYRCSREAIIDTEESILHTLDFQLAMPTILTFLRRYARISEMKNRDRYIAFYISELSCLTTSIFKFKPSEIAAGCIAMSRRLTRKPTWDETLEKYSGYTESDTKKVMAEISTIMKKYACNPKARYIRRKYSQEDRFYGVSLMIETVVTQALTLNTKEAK
UniProt A8BVT7: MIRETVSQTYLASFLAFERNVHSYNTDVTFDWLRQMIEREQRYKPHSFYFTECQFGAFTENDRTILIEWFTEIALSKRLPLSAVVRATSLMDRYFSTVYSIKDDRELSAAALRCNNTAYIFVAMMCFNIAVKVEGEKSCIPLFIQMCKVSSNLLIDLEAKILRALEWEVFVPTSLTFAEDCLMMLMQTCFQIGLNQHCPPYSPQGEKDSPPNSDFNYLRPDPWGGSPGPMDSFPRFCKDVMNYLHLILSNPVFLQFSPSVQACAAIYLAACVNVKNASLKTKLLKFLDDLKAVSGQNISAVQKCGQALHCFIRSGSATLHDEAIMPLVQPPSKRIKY
UniProt A8BZ95: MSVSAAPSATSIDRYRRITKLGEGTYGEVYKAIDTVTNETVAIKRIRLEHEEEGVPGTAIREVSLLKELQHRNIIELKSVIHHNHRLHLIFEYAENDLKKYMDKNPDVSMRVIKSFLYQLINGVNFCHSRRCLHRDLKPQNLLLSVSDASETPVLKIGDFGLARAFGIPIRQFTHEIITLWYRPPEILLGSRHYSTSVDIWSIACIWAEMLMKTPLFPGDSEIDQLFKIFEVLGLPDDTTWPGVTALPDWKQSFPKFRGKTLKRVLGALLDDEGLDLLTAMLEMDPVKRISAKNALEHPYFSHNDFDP
UniProt A8B2A9: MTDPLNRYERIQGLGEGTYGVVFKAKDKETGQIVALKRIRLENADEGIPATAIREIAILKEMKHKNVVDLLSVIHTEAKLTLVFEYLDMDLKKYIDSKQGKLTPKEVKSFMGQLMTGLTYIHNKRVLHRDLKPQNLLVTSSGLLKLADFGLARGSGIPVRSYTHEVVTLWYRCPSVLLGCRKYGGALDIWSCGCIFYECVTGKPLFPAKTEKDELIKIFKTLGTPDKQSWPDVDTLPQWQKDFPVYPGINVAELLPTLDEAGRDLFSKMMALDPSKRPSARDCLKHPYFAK
UniProt A0A644EZR6: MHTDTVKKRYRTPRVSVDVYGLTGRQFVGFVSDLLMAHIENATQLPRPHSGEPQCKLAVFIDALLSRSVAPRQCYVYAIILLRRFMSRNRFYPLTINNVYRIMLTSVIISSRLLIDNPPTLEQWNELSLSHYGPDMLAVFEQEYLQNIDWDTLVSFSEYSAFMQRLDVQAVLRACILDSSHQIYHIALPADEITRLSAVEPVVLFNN
UniProt A0A644F7W3: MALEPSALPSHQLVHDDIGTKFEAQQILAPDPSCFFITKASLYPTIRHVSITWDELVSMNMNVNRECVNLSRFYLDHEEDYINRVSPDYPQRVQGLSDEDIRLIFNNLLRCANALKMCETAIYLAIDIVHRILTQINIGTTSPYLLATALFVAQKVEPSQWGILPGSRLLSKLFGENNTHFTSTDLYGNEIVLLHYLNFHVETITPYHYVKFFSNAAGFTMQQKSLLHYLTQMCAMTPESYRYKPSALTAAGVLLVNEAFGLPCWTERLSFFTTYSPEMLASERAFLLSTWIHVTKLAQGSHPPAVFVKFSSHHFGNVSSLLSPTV
UniProt A0A644F0E8: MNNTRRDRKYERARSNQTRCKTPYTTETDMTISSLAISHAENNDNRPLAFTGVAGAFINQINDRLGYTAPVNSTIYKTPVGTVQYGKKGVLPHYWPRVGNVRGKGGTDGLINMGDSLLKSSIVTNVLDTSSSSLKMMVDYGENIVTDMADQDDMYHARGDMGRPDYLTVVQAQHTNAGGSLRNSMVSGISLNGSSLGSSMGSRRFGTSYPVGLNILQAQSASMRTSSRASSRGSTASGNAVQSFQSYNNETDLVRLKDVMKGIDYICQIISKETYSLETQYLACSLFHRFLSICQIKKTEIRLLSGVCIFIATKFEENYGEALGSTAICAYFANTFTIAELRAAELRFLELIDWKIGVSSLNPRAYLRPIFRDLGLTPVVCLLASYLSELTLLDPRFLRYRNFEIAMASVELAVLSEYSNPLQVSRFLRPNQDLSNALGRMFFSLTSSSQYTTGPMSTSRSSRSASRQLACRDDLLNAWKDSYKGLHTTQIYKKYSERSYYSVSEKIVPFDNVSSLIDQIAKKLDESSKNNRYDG

The target of assay [2] is Myc-tagged Glcyclin 3977 (Giardia lamblia) (UniProt A8B940). The assay is described as above.
Assay [3] has as its target Myc-tagged Glcyclin 17505 (Giardia lamblia). The description is as above.
For assay [4], the target named is Myc-tagged Glcyclin 6584 (Giardia lamblia). The description is as above.
In assay [5] the target is Myc-tagged Glcyclin 22394 (Giardia lamblia) (UniProt A8BVT7). The assay is described as above.
Assay [6] addresses HA-tagged Giardia lamblia CDK1 (Giardia lamblia) (UniProt A8BZ95). Description: co-IP; lysates of Giardia co-expressing an HA-tagged GlCDK and a Myc-tagged Glcyclin, precleared with protein A/G agarose, precipitated with anti-HA agarose beads at 4°C overnight; lysis buffer 10 mM Tris-HCl, 5 mM EDTA, 130 mM NaCl, 1% Triton X-100, pH 7.4; Western blot with anti-HA or anti-Myc; normal mouse IgG as control.

The target in assay [7] is HA-tagged Giardia lamblia CDK2 (Giardia lamblia) (UniProt A8B2A9). Described as above.

We go through seven substances from PMC10100927.

No constants are given. Whether binding was seen depends on the method and setting. In cells and extracts the contact can be indirect. Binding can be weak; no strength is given.

With “HA-tagged Giardia lamblia CDK1 (from UniProt A8BZ95) (enzyme)”, the binding result in assay [1] is listed as “binds”; in assay [2], “binds”; in assay [3], “binds”; in assay [4], “no binding”; in assay [5], “no binding”.

For the substance “HA-tagged Giardia lamblia CDK2 (from UniProt A8B2A9) (enzyme)”, the binding result is given as “no binding” in assay [1]; “binds” in assay [2]; “no binding” in assay [3]; “binds” in assay [4]; “binds” in assay [5].

In the case of “Myc-tagged Glcyclin 3977 (from UniProt A8B940)”, the binding entry in assay [6] and in assay [7] was “binds” in each case.

For the substance “Myc-tagged Glcyclin 6584 (from UniProt A0A644EZR6)”, in assay [7], the binding entry was “binds”.

In the case of “Myc-tagged Glcyclin 14488 (from UniProt A0A644F7W3)”, in assay [6], the binding result is given as “binds”.

Regarding “Myc-tagged Glcyclin 17505 (from UniProt A0A644F0E8)”, the binding result in assay [6] is “binds”.

“Myc-tagged Glcyclin 22394 (from UniProt A8BVT7)”: the binding result in assay [7] is listed as “binds”.
